From PubChem BioAssay AID493014 (National Center for Advancing Translational Sciences (NCATS), 2011) come the findings set out here.

The AC50 is the midpoint of the concentration-response curve, whichever way the signal moves.

The assay is described as follows: qHTS Assay to Find Inhibitors of Chronic Active B-Cell Receptor Signaling. The settings on record: ABC-DLBCL IkBa-CBG/CBR reporter, luminescence ratio (green luciferase fused to IkBa over red control in TMD8 lymphoma cells), 4 h. An outline of the steps: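 TMD8 ABC-DLBCL cells carrying doxycycline-inducible green luciferase fused to IkappaBalpha plus unfused red luciferase were exposed to compounds (up to 46 uM) for 4 hrs at 37C. Activity came from the overlap-corrected green/red luminescence ratio.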
(In general: Quantitative high-throughput screening tests each substance at several concentrations.)

Setting [1] is: measured here: CBR red luminescence, cell number.
Setting [2] is: measured here: IkBa-CBG green luminescence.

Values joined by “and” are separate entries in the source; they are usually repeats but may differ in a detail not shown here. Equal values may be shown once. The list shows a part of the results. Shown are side measurements of this screen, not its main read-out; they come without a call. The list favours compounds with an active or inconclusive main result. Potencies come from curve fits of mixed quality, noted in brackets.

In the case of `COc1ccc(C(=O)Nc2ccc3c(c2)OCO3)cc1OC`, the AC50 under setting [1] is 25.1 µM [falling, partial curve, poor fit].
The same measure, in the same setting: the same measure for `CCOc1ccc(NC(=S)NNC(=O)CC(C)O)cc1` (centres undefined): 0.282 µM [rising, full curve, poor fit]; for `Cc1ccc(-c2csc(NC(=O)c3ccc(F)cc3)c2C(=O)O)cc1`: 5.01 µM [falling, partial curve, poor fit].
Same read-out and setting: the figure for `O=C(c1ccc(F)cc1)[C@@H]1[C@@H](C(=O)c2ccccc2)[C@@]2(C(=O)Nc3ccccc32)[C@H]2c3ccccc3C=CN12` is 18.4 µM [falling, partial curve, poor fit].
Still for that read-out and setting: the same measure for `O=C(Cc1cccs1)Nc1ccc2c(c1)C(=O)OC2`: 0.291 µM [rising, full curve, poor fit].
For the compound `COc1ccccc1CNC(=O)CCS(=O)(=O)c1ccc2c(c1)CCCN2C(C)=O`, the AC50 under setting [1] was 35.5 µM [rising, single point].
As to `CC1CCc2nn(CC(=O)Nc3c(F)cc(F)cc3Br)cc2C1` (centres undefined), the half-maximal activity concentration (AC50) was 29.1 µM [falling, single point] under setting [1] and 32.6 µM [rising, partial curve, poor fit] under setting [2].
As to `Cc1cc(C(=O)N/N=C/c2cccc([N+](=O)[O-])c2)c(C)o1`, the AC50 under setting [1] is 1.26 µM [falling, full curve, poor fit].
The same measure, in the same setting: the same measure for `CC(C)c1ccc(NC(=O)c2ccc(NS(C)(=O)=O)cc2)cc1`: 12.6 µM [falling, partial curve]; for `CC1(C(=O)N/N=C/c2cc3c(cc2Br)OCO3)CC1(Br)Br` (centres undefined): 7.94 µM [falling, partial curve]; for `Cc1sc2nc(C(C)Sc3nnc(C)n3-c3ccccc3)[nH]c(=O)c2c1C` (centres undefined): 13 µM [rising, single point].
As to `COc1ccc(N(C(=O)c2ccn[nH]2)C(C(=O)NC2CCCC2)c2ccc(F)cc2)cc1` (centres undefined), the half-maximal activity concentration (AC50) under setting [1] is 35.5 µM [falling, partial curve, poor fit].
Same read-out and setting: the same measure for `Cc1cc(N2CCN(c3ccccn3)CC2)n2c(nc3ccccc32)c1C#N`: 12.6 µM [rising, partial curve, poor fit]; for `CCOC(=O)N/N=C/c1ccc(N(CC)CC)cc1O`: 25.9 µM [rising, single point].
Regarding `CCC(C)c1ccccc1OCC(=O)NN1C(=O)c2ccccc2C1=O` (centres undefined), the AC50 is 14.1 µM [rising, partial curve] under setting [1] and 17.8 µM [falling, single point] under setting [2].
On to `O=C(C#Cc1ccccc1)NCc1ccccc1F`, for which the concentration at half-maximal activity (AC50) under setting [1] was 15.8 µM [falling, single point].
The same measure, in the same setting: the same measure for `O=C(NC1=C(Nc2ccc(Cl)cc2)C(=O)c2ccccc2C1=O)c1ccccc1`: 18.4 µM [rising, partial curve, poor fit].
On the same count and under the same terms, the same measure for `C[C@H]1CN([C@@H](C)CO)C(=O)c2cc(NC(=O)C3CCCCC3)ccc2O[C@H]1CN(C)C(=O)Nc1ccc2c(c1)OCO2`: 0.0517 µM [rising, full curve, poor fit]; for `CC(C)N(C(=O)[C@H]1C[C@H](CC(=O)NC(C)(C)C)C(=O)N2CCc3c([nH]c4ccc(Cl)cc34)[C@]12C)C(C)C`: 18.4 µM [falling, single point].
For the compound `Cc1ccc(NC(=S)NC(=O)C2CC2)cc1Cl`, the AC50 by setting is: under setting [1], 15.8 µM [falling, partial curve]; under setting [2], 35.5 µM [falling, partial curve, poor fit].
Consider `Cc1ccc(S(=O)(=O)n2nc(OC(=O)c3cccs3)cc2N)cc1`, for which the half-maximal activity concentration (AC50) under setting [1] was 10 µM [falling, partial curve, poor fit].
`COc1ccc2oc(=O)c(C(=O)O)cc2c1`: the AC50 under setting [1] was 18.4 µM [falling, partial curve] and the AC50 under setting [2] was 29.1 µM [rising, partial curve, poor fit].
Turning to `Cc1cc(C)c(/C=C(\C#N)C(N)=S)c(C)c1`, under setting [1], the AC50 was 9.2 µM [falling, partial curve].
For `CCCc1nnc(NC(=O)CCC(=O)NCCc2ccc(OC)c(OC)c2)s1`, the concentration at half-maximal activity (AC50) under setting [2] is 20.6 µM [falling, partial curve, poor fit].
Turning to `Cc1cc(OCC(=O)N(Cc2cccs2)C2CCS(=O)(=O)C2)ccc1Cl` (centres undefined), the half-maximal activity concentration (AC50) under setting [1] was 12.6 µM [falling, partial curve, poor fit].
Same read-out and setting: the figure for `CCOC(=O)Cc1csc(NC(=O)c2csc3c2CCCC3)n1` is 3.55 µM [falling, full curve]; for `O=C1NC(=Nc2ccccc2)S/C1=C\c1ccccc1` it is 7.08 µM [falling, partial curve, poor fit].
With `Cc1csc(NC(=O)c2oc3ccccc3c2C)n1`, the concentration at half-maximal activity (AC50) under setting [1] was 0.517 µM [falling, full curve, poor fit].
The same measure, in the same setting: the same measure for `Cc1cc(C(=O)NCC2CCCCC2)ccc1[N+](=O)[O-]`: 6.31 µM [rising, single point]; for `COc1cccc(N2CCN(C(=O)c3ccc(CSc4nc5ccncc5[nH]4)cc3)CC2)c1`: 20.6 µM [falling, partial curve].
As for `CC(C)c1ccc(NC(=O)N2CCCC2C(=O)Nc2ccc(-n3cnnn3)cc2)cc1` (centres undefined), the AC50 under setting [1] is 11.2 µM [rising, partial curve, poor fit].
In the case of `COc1cccc(/C=C/C(=O)N(C)CC(=O)Nc2ccc(Cl)c(C(F)(F)F)c2)c1`, under setting [1], the AC50 was 23.1 µM [falling, single point].
`COc1ccc(Nc2nc(C(F)(F)F)nc(C)c2C#N)cc1`: the concentration at half-maximal activity (AC50) under setting [1] was 29.1 µM [rising, single point].
`Cc1ccc(NC(=O)Nc2cccnc2)cc1NC(=O)Nc1cccnc1`: the half-maximal activity concentration (AC50) under setting [1] was 2.82 µM [falling, partial curve].
Still for that read-out and setting: the figure for `Cc1ccc(O)c(-c2cc(C(=O)Nc3ccc(S(=O)(=O)Nc4nc(C)cc(C)n4)cc3)[nH]n2)c1` is 2.06 µM [falling, full curve]; for `Cc1ccc(NC(=O)c2nnn(-c3cc(C)cc(C)c3)c2N)cc1` it is 10 µM [falling, partial curve, poor fit]; for `O=C(CCC(=O)OCc1ccc(Cl)cc1)Nc1cccc([N+](=O)[O-])c1` it is 0.282 µM [rising, full curve, poor fit].
Same read-out and setting: the figure for `Cn1c(N)c(C(=O)COC(=O)c2ccc([N+](=O)[O-])o2)c(=O)n(C)c1=O` is 35.5 µM [falling, single point].
The same measure, in the same setting: the figure for `c1ccc(-n2nnc3cnccc32)cc1` is 11.2 µM [falling, partial curve, poor fit].
With `CCCCN(C)CCNC(=O)c1cc(-c2cccnc2)nc2ccc(S(=O)(=O)N3CCC(C)CC3)cc12`, the AC50 under setting [1] was 2.82 µM [rising, full curve, poor fit] and 112 nM [rising, full curve, poor fit].
Still for that read-out and setting: the figure for `CCOc1ccccc1NC(=O)CN1CCC(NC(=O)c2ccccc2)CC1` is 5.62 µM [rising, full curve]; for `CN(C(=O)COc1ccccc1)c1nnc(-c2ccncc2)s1` it is 7.31 µM [falling, partial curve]; for `Nc1ccccc1Nc1cc(-c2cccc(Cl)c2)nn1-c1ccccc1` it is 29.1 µM [falling, single point].
Consider `COc1ccc(-c2csc(NC(=O)c3ccccc3F)c2C(=O)O)cc1`, for which the AC50 under setting [1] was 6.31 µM [falling, partial curve, poor fit].
Same read-out and setting: the same measure for `C=CCC[C@@H](Cc1ccc(F)cc1)C(=O)OC[C@H](C)NC(=O)[C@H](CC=C)CC(=O)N(CCO)Cc1ccccc1`: 36.6 µM [falling, partial curve, poor fit]; for `CCOc1ccc(C(=S)NC2CCCCC2)cc1OC`: 12.6 µM [rising, partial curve].
For `Cc1ccc(C2(C)NC(=O)N(CC(=O)Nc3ccc(Cl)c(S(=O)(=O)N4CCCCC4)c3)C2=O)cc1` (centres undefined), the AC50 under setting [1] is 14.6 µM [falling, single point].
Same read-out and setting: the figure for `C#C[C@]1(O)CC[C@H]2[C@@H]3CCc4cc(OC)ccc4[C@H]3CC[C@@]21C` is 6.51 µM [rising, single point]; for `CN(N=Nc1ccc([N+](=O)[O-])cc1)c1ccccc1` it is 6.51 µM [rising, partial curve].
With `O=C(Nc1sc2c(c1C(=O)O)CCC2)c1ccccc1Cl`, under setting [1], the AC50 is 6.31 µM [falling, partial curve].
The same measure, in the same setting: the same measure for `O=C(Nc1nc2ccc(F)cc2s1)C1CCN(S(=O)(=O)c2cc([N+](=O)[O-])ccc2Cl)CC1`: 7.31 µM [falling, partial curve].
As for `CCn1c(SCc2ccc(C(=O)Nc3cc(C)cc(C)c3)cc2)nnc1-c1ccncc1`, the concentration at half-maximal activity (AC50) under setting [1] was 20.6 µM [falling, single point].
Regarding `c1ccc(-n2cnc3cc(NCc4ccco4)ccc32)cc1`, the half-maximal activity concentration (AC50) under setting [1] was 25.1 µM [falling, single point].
Same read-out and setting: the figure for `CN(CCc1ccccc1)C(=O)CCc1nnc(Cc2ccc3c(c2)OCO3)o1` is 15.8 µM [rising, partial curve, poor fit]; for `CSCCC(NC(=O)COc1ccccc1)C(=O)OCCOc1ccc(C)cc1` (centres undefined) it is 2.06 µM [rising, full curve].
In the case of `C[n+]1cccc(C2C(C#N)=C(N)Oc3c2ccc2ccccc32)c1` (centres undefined), under setting [1], the concentration at half-maximal activity (AC50) is 7.94 µM [falling, partial curve, poor fit].
With `CC(C)CN(C(=O)CSc1nc2ccccc2o1)c1c(N)n(Cc2ccccc2)c(=O)[nH]c1=O`, the half-maximal activity concentration (AC50) under setting [1] is 23.1 µM [falling, partial curve, poor fit].
On the same count and under the same terms, the figure for `Cc1ccc(C(NC(=O)N2CCCC2)C(Cl)Cl)cc1F` (centres undefined) is 11.2 µM [falling, partial curve]; for `CCCCCc1ccc(OCCC[n+]2ccccc2)c(CCCCC)c1` it is 7.08 µM [falling, partial curve, poor fit].
Same read-out and setting: the figure for `O=C(O)/C=C/c1cccc(OCc2ccccc2)c1` is 8.91 µM [falling, partial curve].
